# These are yes or no findings as the source states them, for the method shown. In cells and extracts the contact can be indirect. Some binding calls cover weakened binding; strength is not graded here. For part of these data: Sequences can lack the tags named with a protein.
# Sequences of proteins named here, by UniProt entry; tags and fusion partners are left off.
# UniProt O76216: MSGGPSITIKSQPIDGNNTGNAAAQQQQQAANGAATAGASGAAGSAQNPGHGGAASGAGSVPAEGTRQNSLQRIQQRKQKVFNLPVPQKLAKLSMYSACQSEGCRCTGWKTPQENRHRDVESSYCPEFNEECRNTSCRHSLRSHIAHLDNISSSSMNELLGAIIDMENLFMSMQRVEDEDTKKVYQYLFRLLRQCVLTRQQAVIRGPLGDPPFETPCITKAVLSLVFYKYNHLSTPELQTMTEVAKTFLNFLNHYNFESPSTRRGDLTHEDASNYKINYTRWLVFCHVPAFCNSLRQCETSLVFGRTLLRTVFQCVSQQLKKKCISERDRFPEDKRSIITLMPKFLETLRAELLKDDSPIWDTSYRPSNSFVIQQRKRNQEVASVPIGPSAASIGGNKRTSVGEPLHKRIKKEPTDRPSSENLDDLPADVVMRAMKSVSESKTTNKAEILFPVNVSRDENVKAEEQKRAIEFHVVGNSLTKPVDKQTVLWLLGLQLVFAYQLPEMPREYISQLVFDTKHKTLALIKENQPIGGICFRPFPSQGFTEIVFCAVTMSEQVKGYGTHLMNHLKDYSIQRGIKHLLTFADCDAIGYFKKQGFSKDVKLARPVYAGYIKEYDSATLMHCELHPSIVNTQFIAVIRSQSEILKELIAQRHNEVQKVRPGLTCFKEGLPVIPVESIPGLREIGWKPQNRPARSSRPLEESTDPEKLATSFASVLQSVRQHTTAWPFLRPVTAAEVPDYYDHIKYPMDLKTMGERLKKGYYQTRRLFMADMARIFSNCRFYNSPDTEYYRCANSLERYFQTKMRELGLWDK
# B1: CG9890 protein labeled with a 3xFLAG epitope (protein, UniProt Q9W1V7 1-452)
# chain: MEHEVAVSGGDSSLEEITGSSKLKPSKNTAIKCLKCDKVYIFPSDKDDCLAHLYMEHRLVIADVEDIALLEDYLQYWEKEFHTHEFEQYCTTMFLDQLPDGKYAKNEKYYLLCDILPQDYELRRRLKEKRLSEALERHQFELTDRTFSKECLFCRAIIKGLRADYLDHLFDKHFLLVGKPEKLVYVDELLDHLEENLNRLMCLYCEKIFRDRPTLKEHMRKKGHKRINPNRREYDKYFLINYNRVPTAPTPRKQHLQKRRRETASVSTVADPETGSVDFDKHFARPDSDGEHDSDWSDWAADGEPSSIKCLFCHHLGDNFTALKKHMHEVHRLDFEKATSSLNFYQRVKVVNYLRRQMCLLRCVTCDLQFDEEELLVEHMAQESHHGIGDKESWDKPEFFFPYIENDGLLCVLDDSGGDDPDVDTVRIISEDSLAQINKDAERLSLENFKLL
# B2: ORC2 subunit of the ORC complex (protein, UniProt Q24168 1-618)
# chain: MSASNKGGYKTPRKENLMSIENLTNSEEESEDLNTAMVGNAVESQPKVTSRRSTRRPSPTKKYQAYQKESNGKGQEERIVVNYVEMSDERSSDAEDQEEEESIEESENAARPAAKDLHLIQSEYNVAGTSMFGFNTPKKRDAMALAALNATPCTPKTPKTPRLGVKTPDTKRKKSMDQPKTPAHVRTRVKKQIAKIVADSDEDFSGDESDFRPSDEESSSSSSSSDAGNSSDNDAADDEPKTPSRARRAIVVPVLPKTPSAARLRQSARAKKSNEFVPESDGYFHSHASSKILTSDHTLDRLKNPRLAADRVFSLLSEIKTSAEHEGSINAIMEEYRSYFPKWMCILNEGFNILLYGLGSKHQLLQSFHREVLHKQTVLVVNGFFPSLTIKDMLDSITSDILDAGISPANPHEAVDMIEEEFALIPETHLFLIVHNLDGAMLRNVKAQAILSRLARIPNIHLLASIDHINTPLLWDQGKLCSFNFSWWDCTTMLPYTNETAFENSLLVQNSGELALSSMRSVFSSLTTNSRGIYMLIVKYQLKNKGNATYQGMPFRDLYSSCREAFLVSSDLALRAQLTEFLDHKLVKSKRSVDGSEQLTIPIDGALLQQFLEEQEKK
# B3: ORC3 subunit of the ORC complex (protein, UniProt Q7K2L1 1-721)
# chain: MDPTISVSKGCFVYKNGATRAGKKAASKRKRPAAESSSLLGKEVVQQPFYEEYRKAWNQINDHIADLQHRSYARTLEQLVDFVVGQAERDTPDEVLPTAALLTGINQPDHLSQFTALTQRLHAQRAAMVCVLQSRDCATLKAAVETLVFGLVEDNAEVEQMEDEDEDEDGAERDRKRLRRSQCTMKQLKSWYTNNFDSEQKRRQLVVILPDFECFNASVLQDLILILSAHCGSLPFVLVLGVATAMTAVHGTLPYHVSSKIRLRVFQTQAAPTGLNEVLDKVLLSPKYAFHLSGKTFKFLTHIFLYYDFSIHGFIQGFKYCLMEHFFGGNAFALCTDYSKALGRIKQLTHEDMETIRRLPSFRPYVEQINDCKRIIAVLTDDDYLKKKLPQLLRDCLLHFLLFRCSLEFLTELVGDLPRCPLGKLRRELYVNCLNRAIISTPEYKECLQMLSFLSKDEFVAKVNRALERTEQFLVEEIAPLELGEACTAVLRPKLEAIRLAVDEVVKATMATITTTSPNETRQATDHLTPVASRQELKDQLLQRSKEDKMRHQLNTPTTQFGRALQKTLQLIETQIVQDHLRALQDAPPIHELFVFSDIATVRRNIIGAPRAALHTALNNPHFYMQCKCCELQDQSLLVGTLPDLSVVYKLHLECGRMINLFDWLQAFRSVVSDSDHEEVAQEQIDPQIQARFTRAVAELQFLGYIKMSKRKTDHATRLTW
# B4: TBP (subunit of the TFIID complex) (protein, UniProt P20227 1-353)
# chain: MDQMLSPNFSIPSIGTPLHQMEADQQIVANPVYHPPAVSQPDSLMPAPGSSSVQHQQQQQQSDASGGSGLFGHEPSLPLAHKQMQSYQPSASYQQQQQQQQLQSQAPGGGGSTPQSMMQPQTPQSMMAHMMPMSERSVGGSGAGGGGDALSNIHQTMGPSTPMTPATPGSADPGIVPQLQNIVSTVNLCCKLDLKKIALHARNAEYNPKRFAAVIMRIREPRTTALIFSSGKMVCTGAKSEDDSRLAARKYARIIQKLGFPAKFLDFKIQNMVGSCDVKFPIRLEGLVLTHCNFSSYEPELFPGLIYRMVRPRIVLLIFVSGKVVLTGAKVRQEIYDAFDKIFPILKKFKKQS
# B5: Thoc5 (subunit of the THO complex) (protein, UniProt Q9W1F4 1-616)
# chain: METILNTQFDQLQKAIEGIKEAKSKGQSTDEARIATTLMFVALKHANREVKHKIKAGRDKLHLEKCKVDLSRLQLQNLLYEVSHLKKEIVRCQKFKSRDTSLELLSEAEYSSELPDMPNDAEELSSHKQHLHRLDCELRLRKALDKQYSALLSSKQELLQDNLSHAQRYVSFAPALRTLQSATKPLHDALQLSLDVEWKLSAVVKYLPKPLYVLFIVLQSLQRVSEEQSFTAEVVGYESEAQMQELLKEKKCSTLNYRQTKKESGDREKIADKNNLDDSLAPHPLHICLTIGAAGSNQLVLQIRYFDFIKCATVWGQLNCSRNANGQGDTNFVHHLLRHLYPNDLGNELPIPGIQYELRSSDLTAEECVRYLKAKDYGKPFCWLQSMCSIATVNSSMLYKHELNLNKNNKEIIDRIARRLNSWQRLSQQIRGLTFKDIDLYSLQENIYPAGLSCSLVQWTAITHEELHSQISDALNSSSADKGITYNSYRAVIVRGSAKMECFIRIPSNYPLEMPLWILNVHWNGCLTAQNNSAIKMMEFWTNSLQPKHLEPNDCILYAQLFRTIYSFDIFLETEGSMQNTIEYNKEKPYISAFAKRSRSRPYKYIKKGSVYAFKQ
# Target: T1, ENY2 protein (enhancer of yellow 2) (D. melanogaster (endogenous in S2)) (UniProt Q9VYX1)
# T1 sequence: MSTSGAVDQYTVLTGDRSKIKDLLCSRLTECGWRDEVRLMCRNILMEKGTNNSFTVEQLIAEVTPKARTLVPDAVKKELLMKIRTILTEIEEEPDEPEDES
# Test: co-IP; immunoprecipitation with affinity-purified rabbit anti-ENY2 antibodies from lysate of S2 cells expressing 3xFLAG-CG9890; Western blot with anti-3xFLAG antibodies; pre-immune IgG as negative control
row,Molecule,binding
1,B1,binds

# Target: T2, CG9890 protein (D. melanogaster (endogenous in S2)) (UniProt Q9W1V7)
# T2 sequence: B1 chain
# Test: co-IP; immunoprecipitation with polyclonal anti-CG9890 antibodies immobilised on Mab-sepharose from S2 nuclear lysate (MN III buffer: 20 mM HEPES KOH, 3 mM MgCl2, 0.1% NP40, 0.1 M KCl, pH 8.0; sonicated, DNase I treated), 3 h at +4 °C; Western blot; IgG of an unimmunized rabbit as negative control
row,Molecule,binding
1,GCN5 (subunit of the histone acetyltransferase SAGA complex) (from UniProt O76216 1-813),binds
2,B2,binds
3,B3,binds
4,B4,binds
5,B5,binds

# Reference: PMC6351030
